Data source: PubChem BioAssay AID1259331 (Drosophila RNAi Screening Center, 2017)

- Screen: 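Fly transmembrane-protein genes that affect zinc toxicity in cultured cells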 (primary screen)
- Cells: Drosophila S2R+ cells
- Reagents: long dsRNA against Drosophila genes
- Duration: 5 days (4 days knock-down, then 1 day zinc)
- Conditions: zinc chloride at 15 mM final level for 1 day
- Measured: 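Luminescent ATP assay standing in for viability; Z score is the mean over three replicate plates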
- Scale: mean Z score: higher = more ATP than other wells, better survival under zinc; ATP luminescence: higher = more ATP, more viable cells
- Call rule: 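a reagent is called a hit when its Z score is above 1.5 or below -1.5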
- Calls: active = hit, ATP up or down; inactive = not a hit
This is a random part of about 3,100 reagents tested. Of all reagents, 126 (4.1%) are marked active. 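Calls are per reagent; zinc was so toxic that few knock-downs lowered ATP further, so most hits raise ATP.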 Raw values vary from plate to plate and are shown uncorrected. Not stated in the record: the amount of reagent.

target gene	PubChem SID	mean Z score	ATP luminescence, replicate 1	ATP luminescence, replicate 2	activity call
CG8026	SID104186848	-0.163	93678	71196	inactive
Piezo	SID104182884	-0.193	53018	53996	inactive
Piezo	SID104217326	0.313	70772	63130	inactive
bwa (brain washing)	SID104181541	0.401	49555	48286	inactive
bwa (brain washing)	SID104182102	0.541	55419	50481	inactive
CG6749	SID104190496	-0.228	74421	56139	inactive
CG6749	SID104217121	0.224	58883	49057	inactive
CG6938	SID104190544	-0.206	70905	57477	inactive
CG6938	SID104207165	0.292	59183	72730	inactive
Or2a (Odorant receptor 2a)	SID104198482	-0.782	50488	55745	inactive
Or2a (Odorant receptor 2a)	SID104217407	-0.134	52116	56688	inactive
CrzR (Corazonin receptor)	SID104189573	0.305	82843	63702	inactive
CrzR (Corazonin receptor)	SID104189574	-0.0179	40409	43434	inactive
tomboy20	SID104194705	-0.0143	36062	55556	inactive
sbm (sobremesa)	SID104199977	0.654	78672	75072	inactive
disp (dispatched)	SID104192168	-0.711	62021	48697	inactive
disp (dispatched)	SID104217417	-0.223	52195	53996	inactive
inc (insomniac)	SID104197746	-0.92	53464	48063	inactive
inc (insomniac)	SID104207442	-0.14	61952	56482	inactive
Osi2 (Osiris 2)	SID104191966	-0.182	62638	63101	inactive
Osi2 (Osiris 2)	SID104206918	-0.0865	51818	68451	inactive
Ir75b (Ionotropic receptor 75b)	SID104189981	0.655	86513	71179	inactive
opm (opossum)	SID104201688	1.17	65194	60855	inactive
opm (opossum)	SID104208119	0.72	72345	72637	inactive
CG3216	SID104184139	-0.527	43341	40176	inactive
CG3216	SID104203496	-0.192	58574	58300	inactive
CG11703	SID104194148	1.07	58128	55899	inactive
CG11703	SID104205051	-0.371	57460	47343	inactive
